The source of these data is doi:10.1101/2025.11.03.686312.

Sequences of proteins named here, by UniProt entry; tags and fusion partners are left off. Residues count along the entry.
UniProt O75396: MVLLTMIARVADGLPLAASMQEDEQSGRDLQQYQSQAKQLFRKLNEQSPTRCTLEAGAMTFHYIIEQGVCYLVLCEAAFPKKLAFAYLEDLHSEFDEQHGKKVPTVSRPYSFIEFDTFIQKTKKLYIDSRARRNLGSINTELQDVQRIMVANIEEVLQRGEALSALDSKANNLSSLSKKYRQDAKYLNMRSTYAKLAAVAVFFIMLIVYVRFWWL
UniProt Q9P0T7, residues 21-183: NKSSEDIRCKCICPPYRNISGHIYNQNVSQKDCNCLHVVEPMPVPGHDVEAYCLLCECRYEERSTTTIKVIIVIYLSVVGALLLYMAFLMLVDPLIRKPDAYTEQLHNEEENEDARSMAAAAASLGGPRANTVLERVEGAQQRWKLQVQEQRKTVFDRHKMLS

Common to all, as to assay: co-IP
The target of assay [1] is T1, ClC-5 E527D, overexpressed in HEK293T cells (human) (UniProt P51795).
T1 sequence: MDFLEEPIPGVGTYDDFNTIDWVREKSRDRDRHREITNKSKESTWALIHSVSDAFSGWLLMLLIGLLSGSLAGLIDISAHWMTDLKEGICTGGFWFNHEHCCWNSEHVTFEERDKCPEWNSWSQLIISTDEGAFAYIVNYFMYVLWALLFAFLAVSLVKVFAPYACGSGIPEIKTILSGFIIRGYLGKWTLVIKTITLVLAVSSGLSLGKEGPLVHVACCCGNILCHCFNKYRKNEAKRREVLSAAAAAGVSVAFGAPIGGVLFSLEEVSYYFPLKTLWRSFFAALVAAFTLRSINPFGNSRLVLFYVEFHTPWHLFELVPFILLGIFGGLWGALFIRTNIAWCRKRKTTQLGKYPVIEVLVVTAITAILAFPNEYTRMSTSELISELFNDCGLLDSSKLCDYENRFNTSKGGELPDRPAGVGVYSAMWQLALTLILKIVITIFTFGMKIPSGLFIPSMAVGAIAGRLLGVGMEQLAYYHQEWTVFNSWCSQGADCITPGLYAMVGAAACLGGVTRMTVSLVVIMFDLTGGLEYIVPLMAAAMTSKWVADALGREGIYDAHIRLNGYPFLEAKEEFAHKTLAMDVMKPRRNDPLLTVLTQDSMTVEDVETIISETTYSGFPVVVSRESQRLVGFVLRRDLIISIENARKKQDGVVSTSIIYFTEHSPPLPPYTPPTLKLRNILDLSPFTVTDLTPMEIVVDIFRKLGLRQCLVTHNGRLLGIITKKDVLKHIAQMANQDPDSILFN

Assay [2] addresses T2, ClC-5 I524K, overexpressed in HEK293T cells (human) (UniProt P51795).
T2 sequence: T1 sequence with I524K, D527E

For assay [3], the target named is T3, ClC-5 V523Δ, overexpressed in HEK293T cells (human) (UniProt P51795).
T3 sequence: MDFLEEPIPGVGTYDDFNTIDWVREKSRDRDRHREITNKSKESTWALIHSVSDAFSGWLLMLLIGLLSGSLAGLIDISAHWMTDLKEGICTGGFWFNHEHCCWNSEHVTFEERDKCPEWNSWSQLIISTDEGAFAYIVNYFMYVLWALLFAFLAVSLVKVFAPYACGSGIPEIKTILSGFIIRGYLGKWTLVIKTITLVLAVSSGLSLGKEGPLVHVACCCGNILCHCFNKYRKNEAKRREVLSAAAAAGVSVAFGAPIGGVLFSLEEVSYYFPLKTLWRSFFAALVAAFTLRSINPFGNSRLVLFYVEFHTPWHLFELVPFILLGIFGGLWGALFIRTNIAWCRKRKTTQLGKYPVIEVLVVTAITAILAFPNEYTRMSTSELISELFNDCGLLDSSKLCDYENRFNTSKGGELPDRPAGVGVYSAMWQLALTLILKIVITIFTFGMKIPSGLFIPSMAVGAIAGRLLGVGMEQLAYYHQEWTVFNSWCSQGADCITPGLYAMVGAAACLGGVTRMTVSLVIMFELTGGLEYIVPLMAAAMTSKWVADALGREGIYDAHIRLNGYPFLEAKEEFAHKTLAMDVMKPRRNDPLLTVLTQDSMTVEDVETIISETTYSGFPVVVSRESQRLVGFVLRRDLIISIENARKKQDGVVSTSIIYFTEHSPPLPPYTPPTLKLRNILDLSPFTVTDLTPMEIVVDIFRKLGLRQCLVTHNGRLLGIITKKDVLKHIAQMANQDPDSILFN

Assay [4] deals with T4, ClC-5 WT, overexpressed in HEK293T cells (human) (UniProt P51795).
T4 sequence: T1 sequence with D527E

Numbering of substitutions follows the chain as printed. No constants are given. Whether binding was seen depends on the method and setting. In cells and extracts the contact can be indirect. Some entries that bind do so weakly or less than the wild type.

Consider “SEC22B, overexpressed in HEK293T cells (from UniProt O75396 1-215)”, for which the binding entry in assay [1] is “no binding”; in assay [2] it was “no binding”; in assay [3], “no binding”; in assay [4], “binds”.
For the substance “TMEM9, overexpressed in HEK293T cells (from UniProt Q9P0T7 21-183)”, the binding result in assay [1], in assay [2], in assay [3] and in assay [4] was “binds” each time.
